The text below walks through data of patent US10351594B2 (Shanghai Lumosa Therapeutics Co., Ltd., priority 2013, dated 2019).

Series [1] in a line: general procedure: solution-phase peptide synthesis. To be noted: coupling step.
Another series is described as follows: peptide synthesis. To be noted: late stage modification step.

As to “3S-6,7-dihydroxy-1,1-dimethyl-1,2,3,4-tetrahydro-isoquinoline-3-acyl-Lys (Boc-Pro-Ala-Ala)-OBzl”, the step yield in series [1] is on record as 38%.
On the same count and under the same terms, under “3S-6,7-dihydroxy-1,1-dimethyl-1,2,3,4-tetrahydro-isoquinoline-3-acyl-Lys (Boc-Pro-Ala-Phe)-OBzl” stands 36%; under “3S-6,7-dihydroxy-1,1-dimethyl-1,2,3,4-tetrahydro-isoquinoline-3-acyl-Lys (Boc-Pro-Ala-Pro)-OBzl”, 37%; under “3S-6,7-dihydroxy-1,1-dimethyl-1,2,3,4-tetrahydro-isoquinoline-3-acyl-Lys (Boc-Pro-Ala-Trp)-OBzl”, 35%.
The same measure, in the same setting: under “3S-6,7-dihydroxy-1,1-dimethyl-1,2,3,4-tetrahydro-isoquinoline-3-acyl-Lys (Boc-Pro-Ala-Tyr)-OBzl” stands 31%; under “3S-6,7-dihydroxy-1,1-dimethyl-1,2,3,4-tetrahydro-isoquinoline-3-acyl-Lys (Boc-Pro-Ala-Val)-OBzl”, 37%.
“3S-6,7-dihydroxy-1,1-dimethyl-1,2,3,4-tetrahydro-isoquinoline-3-acyl-Lys(Boc-Pro-Ala-Asn)-OBzl” registered a step yield in series [1] of 38%.
On the same count and under the same terms, under “3S-6,7-dihydroxy-1,1-dimethyl-1,2,3,4-tetrahydro-isoquinoline-3-acyl-Lys(Boc-Pro-Ala-Gln)-OBzl” stands 39%; under “3S-6,7-dihydroxy-1,1-dimethyl-1,2,3,4-tetrahydro-isoquinoline-3-acyl-Lys(Boc-Pro-Ala-Gly)-OBzl”, 39%; under “3S-6,7-dihydroxy-1,1-dimethyl-1,2,3,4-tetrahydro-isoquinoline-3-acyl-Lys(Boc-Pro-Ala-Ile)-OBzl”, 37%.
The same measure, in the same setting: under “3S-6,7-dihydroxy-1,1-dimethyl-1,2,3,4-tetrahydro-isoquinoline-3-acyl-Lys(Boc-Pro-Ala-Leu)-OBzl” stands 36%.
Still for that read-out and setting: with “3S-6,7-dihydroxy-1,1-dimethyl-1,2,3,4-tetrahydro-isoquinoline-3-acyl-Lys(Boc-Pro-Ala-Ser)-OBzl” the figure was 29%; with “3S-6,7-dihydroxy-1,1-dimethyl-1,2,3,4-tetrahydro-isoquinoline-3-acyl-Lys(Boc-Pro-Ala-Thr)-OBzl”, 30%.
In turn, “3S-6,7-dihydroxy-1,1-dimethyl-1,2,3,4-tetrahydro-isoquinoline-3-acyl-Lys(Pro-Ala-Ala)” registered a step yield in the series “peptide synthesis” of 78%.
On the same count and under the same terms, under “3S-6,7-dihydroxy-1,1-dimethyl-1,2,3,4-tetrahydro-isoquinoline-3-acyl-Lys(Pro-Ala-Asn)” stands 78%; under “3S-6,7-dihydroxy-1,1-dimethyl-1,2,3,4-tetrahydro-isoquinoline-3-acyl-Lys(Pro-Ala-Asp)”, 83%; under “3S-6,7-dihydroxy-1,1-dimethyl-1,2,3,4-tetrahydro-isoquinoline-3-acyl-Lys(Pro-Ala-Gln)”, 79%.
Substance “3S-6,7-dihydroxy-1,1-dimethyl-1,2,3,4-tetrahydro-isoquinoline-3-acyl-Lys(Pro-Ala-Glu)” came in with a step yield in the series “peptide synthesis” of 82%.
On the same count and under the same terms, under “3S-6,7-dihydroxy-1,1-dimethyl-1,2,3,4-tetrahydro-isoquinoline-3-acyl-Lys(Pro-Ala-Gly)” stands 85%; under “3S-6,7-dihydroxy-1,1-dimethyl-1,2,3,4-tetrahydro-isoquinoline-3-acyl-Lys(Pro-Ala-Ile)”, 78%; under “3S-6,7-dihydroxy-1,1-dimethyl-1,2,3,4-tetrahydro-isoquinoline-3-acyl-Lys(Pro-Ala-Leu)”, 77%.
Still for that read-out and setting: with “3S-6,7-dihydroxy-1,1-dimethyl-1,2,3,4-tetrahydro-isoquinoline-3-acyl-Lys(Pro-Ala-Lys)” the figure was 75%; with “3S-6,7-dihydroxy-1,1-dimethyl-1,2,3,4-tetrahydro-isoquinoline-3-acyl-Lys(Pro-Ala-Phe)”, 78%; with “3S-6,7-dihydroxy-1,1-dimethyl-1,2,3,4-tetrahydro-isoquinoline-3-acyl-Lys(Pro-Ala-Pro)”, 78%.
Take “3S-6,7-dihydroxy-1,1-dimethyl-1,2,3,4-tetrahydro-isoquinoline-3-acyl-Lys(Pro-Ala-Ser)”: in “peptide synthesis”, the step yield was found to be 79%.
Same read-out and setting: under “3S-6,7-dihydroxy-1,1-dimethyl-1,2,3,4-tetrahydro-isoquinoline-3-acyl-Lys(Pro-Ala-Thr)” stands 76%; under “3S-6,7-dihydroxy-1,1-dimethyl-1,2,3,4-tetrahydro-isoquinoline-3-acyl-Lys(Pro-Ala-Trp)”, 76%; under “3S-6,7-dihydroxy-1,1-dimethyl-1,2,3,4-tetrahydro-isoquinoline-3-acyl-Lys(Pro-Ala-Tyr)”, 74%.
Still for that read-out and setting: under “3S-6,7-dihydroxy-1,1-dimethyl-1,2,3,4-tetrahydro-isoquinoline-3-acyl-Lys(Pro-Ala-Val)” stands 81%.
As to “3S-6,7-dihydroxy-1,1-dimethyl-1,2,3,4-tetrahydro-isoquinoline-3-acyl-Lys[Boc-Pro-Ala-Asp(OBzl)]-OBzl”, in series [1], the step yield came to 35%.
Turning to “3S-6,7-dihydroxy-1,1-dimethyl-1,2,3,4-tetrahydro-isoquinoline-3-acyl-Lys[Boc-Pro-Ala-Glu(OBzl)]-OBzl”, the step yield in series [1] was 38%.
Regarding “3S-6,7-dihydroxy-1,1-dimethyl-1,2,3,4-tetrahydro-isoquinoline-3-acyl-Lys[Boc-Pro-Ala-Lys(Z)]-OBzl”, the step yield in series [1] came to 30%.
